Assay results from PubChem BioAssay AID504444 (National Center for Advancing Translational Sciences (NCATS), 2011).
Hit rate of the full screen: of about 360,000 compounds, about 7,500 (2.1%) were called active. The shares of active, inactive and inconclusive entries below differ from those in the screen. The call rests on the fitted dose curve; in most records, active means well fitted inhibition curve with a large enough effect; inconclusive means small, poorly fitted or top-dose-only effect, or effect the other way; inactive means flat fitted curve, though single readings scatter. Where the call is inconclusive, the potency comes from a doubtful curve fit.
On the % scale 0 is the no-effect control and ±100 the full control effect; potency means the concentration at half of the fitted maximal effect.

Test: Nrf2 qHTS screen for inhibitors; further: nearly all actives have a fitted effect of over 60% in size
Conditions: A549 ARE-Fluc reporter, luciferase luminescence, 18-24 h; activity change, negative = inhibition: at 46 µM (top of the series)
How it was run: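 In this cell-based qHTS, ARE-driven firefly luciferase in A549 cells reports Nrf2 activity; the luminescent signal after BugLite lysis is the measured value, with a prior CellTiter-Fluor read for cell health.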
With `O=C(N/N=C(/c1ccccc1)c1ccncc1)c1ccc2c(c1)OCO2` the Potency was inconclusive: 25.9 µM [falling, partial curve, poor fit]. With `COc1cc(/C=N/Nc2ccc(Cl)c(C(=O)O)c2)ccc1OC(=O)c1cccs1` the Potency was inconclusive: 2.06 µM [activator, partial curve, poor fit]. With `Cc1cc(C)nc(/N=C(\N)Nc2ccc(OCc3ccccc3)cc2)n1` the Potency was “inactive”. With `Cc1oc(-c2ccc(-c3ccccc3)cc2)nc1CN1CCN(CC(=O)N(C)C)CC1` the Potency was inconclusive: 9.2 µM [activator, partial curve]. In the case of `Cc1cc(N/N=C/c2ccc([N+](=O)[O-])o2)nc2ccccc12`, the Potency is reported as inconclusive: 32.6 µM [falling, single point]. With `O=C(Nc1ccccc1C(=O)Nc1ccncc1)c1ccccc1` the Potency was inconclusive: 2.59 µM [falling, full curve, poor fit]. For `O=C(CSc1nnc(NC(=O)c2ccco2)s1)Nc1ccc(F)cc1`, the Potency was inconclusive: 6.51 µM [falling, single point]. In the case of `CC1CCCCN1C(=O)CN1CCN(S(=O)(=O)c2ccc(Br)cc2Cl)CC1` (stereo not given), the Potency is reported as “inactive”. For `COc1ccc(Br)cc1C(=O)Nc1cccc(-c2nnc(-c3ccco3)o2)c1`, the Potency was “inactive”. With `Cc1ccc(N(C)S(=O)(=O)c2ccc(-c3cnc(C4CC4)o3)cc2)cc1` the Potency was “inactive”. With `CCN(CC)S(=O)(=O)c1ccc(N2CCOCC2)c(NC(=O)c2cccc3c(=O)c(C)c(-c4ccccc4)oc23)c1` the Potency was inconclusive: 7.31 µM [falling, partial curve, poor fit]. In the case of `CCn1c(CN2CCCCC2)nc2cc(NC(=O)COc3cc(C)ccc3C(C)C)ccc21`, the Potency is reported as inconclusive: 29.1 µM [falling, single point]. In the case of `COc1ccc(C(=O)NCC(=O)OCC(=O)Nc2ncc(Cl)cc2Cl)cc1[N+](=O)[O-]`, the Potency is reported as inconclusive: 20.6 µM [activator, partial curve, poor fit]. With `CC(C)Oc1ccc(CNC(=O)c2ccc3c(c2)N(Cc2ccc(F)cc2)CCS3)cc1` the Potency was inconclusive: 7.31 µM [falling, partial curve, poor fit]. In the case of `O=C(Nc1ccccc1)c1cnc2ccccc2n1`, the Potency is reported as inconclusive: 10.3 µM [activator, partial curve]. For `Cc1ccc(N2C(=O)CC(NCc3ccc4c(c3)OCO4)C2=O)cc1Cl` (stereo not given), the Potency was inconclusive: 14.6 µM [activator, single point]. In the case of `COc1cc(C(=O)NC(=S)Nc2ccccc2N2CCCC2)cc(OC)c1OC`, the Potency is reported as active: 18.4 µM. For `COC(=O)c1cc(OC)c(OC)c(OC)c1NC(=O)c1cc(=O)n(C)c(=O)n1C`, the Potency was “inactive”. With `Cc1cccc(C(=O)c2cnc3ccccc3c2-c2ccccc2)c1` the Potency was inconclusive: 29.1 µM [falling, single point]. With `CCO[C@@H]1OC(C(=O)N2CCN(Cc3ccc4c(c3)OCO4)CC2)=C[C@H](c2ccc(Br)cc2)[C@H]1CCCO` the Potency was “inactive”. In the case of `Cc1cccc(CCNS(=O)(=O)c2cnc[nH]2)c1`, the Potency is reported as inconclusive: 29.1 µM [falling, single point]. With `COc1ccccc1C(=O)N1CCCC(c2nc(-c3cc(OC)c(OC)c(OC)c3)no2)C1` (stereo not given) the Potency was “inactive”. With `COc1ccc(S(=O)(=O)N2CCOCC2)cc1NC(=O)c1sccc1C` the Potency was inconclusive: 29.1 µM [falling, single point]. In the case of `CCOC(=O)Cn1nnnc1CN(Cc1cccs1)Cc1cc2cc(C)ccc2[nH]c1=O`, the Potency is reported as “inactive”. For `O=C(CCNS(=O)(=O)c1cccc2nonc12)Nc1ccc(F)cc1`, the activity change, negative = inhibition was inactive: 9.56% [at 9.27 µM]. For `COC(=O)c1cc(OC)c(OC)cc1NC(=O)CN1CCCCC1`, the Potency was inconclusive: 6.51 µM [activator, single point]. With `CC(=O)Nc1ccc(Nc2nc(Nc3ccc(Cl)cc3)nc(N3CCOCC3)n2)cc1` the Potency was inconclusive: 9.2 µM [falling, partial curve]. With `Cc1cnc(C(=O)Nc2nccs2)cn1` the Potency was inconclusive: 0.082 µM [activator, full curve, poor fit]. For `CCCc1nnc(NC(=O)C(=O)NCCN(CC)CC)s1`, the Potency was inconclusive: 3.66 µM [falling, partial curve, poor fit]. In the case of `COc1ccc(N2CCN(C(=O)c3cn(C4CCCCC4)c(=O)c4c3c3ccccc3n4C)CC2)cc1`, the Potency is reported as inconclusive: 18.4 µM [falling, partial curve, poor fit]. In the case of `O=C(Nc1ccc2c(c1)OCO2)c1ccc(=O)[nH]n1`, the Potency is reported as inconclusive: 20.6 µM [activator, partial curve, poor fit]. With `O=C(Nc1ccc(Br)cc1)c1ccc(CSC2=NCCS2)cc1` the Potency was inconclusive: 16.4 µM [falling, single point]. With `CCC1(Cc2ccccc2)NC(=O)c2ccccc2O1` (stereo not given) the Potency was inconclusive: 5.8 µM [falling, full curve]. With `CN1CC[C@H](c2c(O)cc(O)c3c(=O)cc(-c4ccccc4Cl)oc23)[C@@H](O)C1` the Potency was inconclusive: 0.58 µM [falling, full curve, poor fit]. For `Cc1ccc2c(CN3CCN(Cc4ccc5c(c4)OCO5)CC3)cc(=O)oc2c1C`, the Potency was “inactive”. In the case of `COc1ccc(-c2cc(C(=O)Nc3ccc(S(=O)(=O)Nc4ncccn4)cc3)c3ccccc3n2)cc1`, the Potency is reported as inconclusive: 23.1 µM [falling, single point]. For `COc1cc(/C=N/OCC(=O)NC2CCCCC2C)ccc1OCc1ccc(Cl)cc1` (stereo not given), the Potency was inconclusive: 1.3 µM [activator, partial curve, poor fit]. In the case of `Cn1cc(C(=O)N2CCN(c3cccc(Cl)c3)CC2)c(=O)c2cc(S(=O)(=O)N3CCCC3)ccc21`, the Potency is reported as inconclusive: 32.6 µM [falling, single point]. In the case of `COCCn1c(=O)[nH]c2cc(C(=O)NC3CCCCCC3)ccc2c1=O`, the Potency is reported as inconclusive: 18.4 µM [activator, partial curve, poor fit]. With `FC(F)(F)Oc1ccc(NC(=S)NCc2ccccc2)cc1` the Potency was inconclusive: 32.6 µM [falling, single point]. In the case of `CCNc1ccc2noc3c2c1C(=O)c1ccccc1-3`, the Potency is reported as active: 20.6 µM. With `COc1ccc(CCNC(=O)C2CC(c3ccccc3[N+](=O)[O-])=NO2)cc1` (stereo not given) the Potency was inconclusive: 25.9 µM [activator, single point]. In the case of `O=C(Oc1ccc(N(Cc2cccs2)C2=NS(=O)(=O)c3ccccc32)cc1)c1ccccc1Cl`, the Potency is reported as active: 1.03 µM. For `CC(C)c1ccc(C(=O)Nc2ccc(-c3nc4ccccc4s3)c(Cl)c2)cc1`, the Potency was inconclusive: 16.4 µM [falling, single point]. With `O=C(NNc1ccccc1Br)C(O)(c1cccc(C(F)(F)F)c1)c1cccc(C(F)(F)F)c1` the Potency was inconclusive: 29.1 µM [falling, single point]. In the case of `CSc1ccc(/C=N/n2c(Cc3ccc(Br)cc3)n[nH]c2=S)cc1`, the Potency is reported as inconclusive: 16.4 µM [falling, single point]. With `COc1cccc(-n2c(-c3ccco3)nc3c(cnn3-c3ccccc3C)c2=O)c1` the Potency was inconclusive: 14.6 µM [falling, partial curve]. With `Cc1c(Cl)cccc1NC(=S)NN` the Potency was inconclusive: 16.4 µM [falling, single point]. In the case of `NC(=O)c1nc[nH]c1C(=O)Nc1cccc(NC(=O)c2cccc(C(F)(F)F)c2)c1`, the Potency is reported as inconclusive: 16.4 µM [falling, partial curve, poor fit]. For `CCOC(=O)c1sc(NC(=O)c2ccccc2OC)nc1C`, the Potency was inconclusive: 0.116 µM [activator, full curve, poor fit]. For `CCOc1ccc(OCCNC(=O)c2cc(C3CC3)nc3c2cnn3C(C)C)cc1`, the Potency was inconclusive: 13 µM [falling, partial curve]. With `CN1c2ccc(Cl)cc2C(=O)NC1c1ccc([N+](=O)[O-])s1` (stereo not given) the Potency was inconclusive: 32.6 µM [falling, single point]. In the case of `Clc1ccc(CSc2nnc(-c3ccncc3)o2)cc1`, the Potency is reported as inconclusive: 29.1 µM [falling, single point]. With `COc1ccc(-c2nc(Cn3c(SCc4cccc(F)c4)nc4cccnc43)c(C)o2)cc1` the Potency was active: 20.6 µM. For `Cc1cc(/C=C2\SC(=O)NC2=O)c(C)n1-c1ccc(N(C)C)cc1`, the Potency was “inactive”. With `COC(=O)C(NC(=O)c1ccc(OC)cc1)(Nc1ncc(S(=O)(=O)c2ccc([N+](=O)[O-])cc2)s1)C(F)(F)F` (stereo not given) the Potency was inconclusive: 23.1 µM [falling, single point]. For `Cc1cc(C)n(-c2ccc(C(=O)OCn3nnc4ccccc4c3=O)cc2)n1`, the Potency was “inactive”. In the case of `CCc1cc2c(N3CCN(c4nnc(CC)s4)CC3)ncnc2s1`, the Potency is reported as active: 23.1 µM. For `O=C(O)CC1(CC(=O)Nc2ccc(F)c(Cl)c2)CCCCC1`, the Potency was “inactive”. For `FC(F)(F)c1cccc(NC(=S)NCCc2ccccn2)c1`, the Potency was inconclusive: 10.3 µM [falling, partial curve]. For `Cc1ccc(C(=O)OCC(=O)c2ccc(Cl)s2)s1`, the Potency was inconclusive: 23.1 µM [activator, single point]. For `O=C(COc1ccc(C(=O)c2ccc(F)cc2)cc1)Nc1cccc(S(=O)(=O)N2CCOCC2)c1`, the Potency was active: 23.1 µM. For `COc1ccccc1/C=N\NC(=O)c1ccc(COc2ccc(C)c(C)c2)o1`, the Potency was inconclusive: 8.2 µM [activator, partial curve]. In the case of `O=C(Nc1ccc(F)cc1F)c1cc2ccc3cccnc3c2[nH]1`, the Potency is reported as inconclusive: 1.03 µM [activator, full curve, poor fit]. In the case of `O=C1C(C=NCc2ccco2)=C(O)c2ccccc21`, the Potency is reported as inconclusive: 2.06 µM [activator, full curve, poor fit].
